In patent US20140037630A1, “METHODS FOR TREATING MICA-RELATED DISORDERS” (DANA-FARBER CANCER INSTITUTE, INC., priority 2006, published 2014):
For at least one compound, name, drawing or mass did not settle the structure.

Experiments:
Type in all cases: cell-based
U226 MM cells [1] = assay: Immunoblotting for DNA damage response (phospho-ATM, phospho-chk-2) in U226 MM cells; details: 20 μM Bortezomib or 250 μg/ml dexamethasone
Description: (§1) Antibodies used for immunoblotting were: anti-phospho-ATM (ser 1981), anti-ATM, anti-phospho-ATR (ser 428), anti-ATR, anti-phospho-chk-1 (ser 280) and anti-phospho-chk-2 (thr 68) (Cell Signaling, Beverly, Mass.). Immunoblotting was performed according to standard methods. In some experiments, U226 cells were transiently transfected with expression plasmids encoding human chk-1 shRNA (5′-[…]-3′) (SEQ ID NO: 1), chk-2 shRNA, or ATM shRNA (Upstate cell signaling, Lake Placid, N.Y.) according to the manufacturer's instructions. The efficiency of gene knockdown was 50%-90% as assessed by immunoblotting.
(§2) U226, RPMI, and MM-1R cells were obtained from the American Type Culture Collection (Manassas, Va.), and MM-1S cells were a gift of Dr. Steven Rosen (Northwestern University). […] U226-MICA cells were generated with retroviral mediated gene transfer according to standard methods.
(§3) The effect of the proteasome inhibitor Bortezomib, a MM therapeutic, on MICA expression and the DNA damage response pathway was analyzed. U226 and RPMI-8226 MM cells were treated with 20 μM Bortezomib, 250 μg/ml dexamethasone or 10 μg/ml aphidicolin (a DNA polymerase inhibitor that served as a control for inducing DNA damage) for the indicated times. Cell lysates were prepared and evaluated for phospho-ATM (ser 1981), ATM, phospho-chk-2 (thr 68) or chk-2 by immunoblotting. […]

RPMI-8226 MM cells = assay: Immunoblotting for DNA damage response (phospho-ATM, phospho-chk-2) in RPMI-8226 MM cells; details: 20 μM Bortezomib or 250 μg/ml dexamethasone
Description: as §1, §2, §3

U226 MM cells [2] = assay: Surface MICA expression by flow cytometry in U226 MM cells; details: 20 μM Bortezomib overnight
Description: (§4) PBMCs and bone marrow aspirates were processed by Ficoll-Hypaque (Pharmacia) density-gradient centrifugation. PBMCs from healthy donors or patients were incubated for 48 hours in patient or control sera (10%) in complete media and stained with PE-conjugated anti-NKG2D mAb (Pharmingen), FITC-conjugated anti-CD3 mAb (BD-Biosciences Pharmingen), and either PC5-conjugated anti-CD8 mAb or PC5-conjugated anti-CD56 mAb (Beckman-Coulter). In Examples 9-11, antibodies used, in addition to the above, were: FITC-conjugated anti-CD138, PE-conjugated anti-MICA mAb (R&D Systems), and anti-ERp5 (Axxora Platform) followed by FITC-conjugated anti-rabbit (Southern Biotech). Cells were analyzed with a FW501 flow cytometer (Beckman-Coulter) and FlowJo software (Tree Star). Cells were gated for CD3^+CD8^+ T cells and CD3^−CD56^+ NK cells. […] Cells were analyzed with a FACScan cytometer (Becton Dickinson). […]
(§5) For the experiment shown in FIG. 16B, the indicated MM cells were treated with 20 μM Bortezomib overnight and surface MICA expression was determined with flow cytometry. […] IFN-γ production was measured by ELISPOT against dendritic cells loaded with U226 MM cells. […]

MM-1R MM cells = assay: Surface MICA expression by flow cytometry in MM-1R MM cells; details: 20 μM Bortezomib overnight
Description: as §4, §5

RPMI cells = assay: Surface MICA expression by flow cytometry in RPMI MM cells; details: 20 μM Bortezomib overnight
MM-1S cells = assay: Surface MICA expression by flow cytometry in MM-1S cells; details: 20 μM Bortezomib overnight
U226 MM cells [3] = assay: Dendritic cell cross-presentation of MGUS sera-coated treated U226 MM cells, IFN-γ ELISPOT of CD8+ T cells; details: drug treated U226 MM cells coated with MGUS sera; CD8+ T cells stimulated seven days
Description: Donor peripheral blood mononuclear cells (PBMCs) were incubated in 10% patient sera as described above, and NK cells, isolated by magnetic cell sorting (Miltenyl Biotech), were tested in four-hour lysis assays against ^51Cr-labeled K562 target cells. The spontaneous release in all assays was less than 20% of the maximum. Dendritic cells (generated from adherent PBMCs with GM-CSF and IL-4) were co-cultured with opsonized tumor cells (1:1 ratio) for 20 hours, matured with LPS (Sigma-Aldrich) for 24 hours, and then used to stimulate autologous CD8+ T cells, isolated by magnetic cell sorting, for seven days. Antigen specific IFN-γ production was then determined by ELISPOT. For enzyme-linked immunospot (ELISPOT) analysis, ImmunoSpotplates (Cellular Technology) were coated overnight at 37° C. with 10 μg/ml anti-IFN-γ mAb (Mabtech). […] Spots were developed by using BCIP/NBT as a color development substrate and counted with an ImmunoSpot microplate reader (Cellular Technology, Cleveland).
as §5

With `C[C@@H]1C[C@H]2[C@@H]3CCC4=CC(=O)C=C[C@]4(C)[C@@]3(F)[C@@H](O)C[C@]2(C)[C@@]1(O)C(=O)CO` [dexamethasone] the “phosphorylation of ATM (ser 1981) and chk-2 (thr 68)” value (U226 MM cells [1]) was “failed to activate the pathway”, the “phosphorylation of ATM (ser 1981) and chk-2 (thr 68)” value (RPMI-8226 MM cells) was “failed to activate the pathway” and the “surface expression of MICA” value (U226 MM cells [2]) was “did not alter MICA levels”. For the same compound, the “surface expression of MICA” value (MM-1R MM cells) was “did not alter MICA levels”, the “surface expression of MICA” value (RPMI cells) was “did not alter MICA levels” and the “surface expression of MICA” value (MM-1S cells) was “did not alter MICA levels”. The “dendritic cell cross-presentation of treated U226 cells by MGUS sera (IFN-γ ELISPOT)” value (U226 MM cells [3]) was “equivalent to untreated U226 cells”.
